Test results reported in patent US20070134261A1, “Effectors of innate immunity” (priority 2001, published 2007).
“And” between values parts separate entries of the source, which are not always exact repeats. Equal entries are not always repeated. Not every detail of the peptide structures is certain; ends, links or a residue may be inferred. No end group written: not given here.

System: human A549 epithelial cells
Test: Resgen Human cDNA arrays (PRHU03-S3) of A549 cells treated with peptide (Tables 21-26)
Settings: 50 μg/ml, 4 h

RPRYPWWPWWPYRPRK [SEQ ID NO: 19]
Ratio Peptide:Unstimulated, TLR 1 (AI339155): 0.14
Ratio Peptide:Unstimulated, disintegrin-like and metalloprotease with thrombospondin type 1 motif, 5 (AI375048): 1.02
Ratio Peptide:Unstimulated, killer cell lectin-like receptor subfamily G, member 1 (AI433079): 0.7
Ratio Peptide:Unstimulated, apoptosis antagonizing transcription factor (AI439571): 1.28
Ratio Peptide:Unstimulated, T-cell receptor interacting molecule (AI453185): 1.41
Ratio Peptide:Unstimulated, TGFB inducible early growth response 2 (AI473938, listed as ID 19): 0.9 and 0.87
Ratio Peptide:Unstimulated, MAP kinase kinase kinase 1 (AI538525): 0.81
Ratio Peptide:Unstimulated, protocadherin 12 (AI652584): 2.6
Ratio Peptide:Unstimulated, protein tyrosine phosphatase, non-receptor type 18 (AI668897): 1.9
Ratio Peptide:Unstimulated, Fc fragment of IgE, high affinity I, receptor for; alpha polypeptide (AI676097): 0.56
Ratio Peptide:Unstimulated, G protein-coupled receptor 4 (AI719098): 2.4
Ratio Peptide:Unstimulated, peroxisome proliferative activated receptor, alpha (AI739498): 0.87
Ratio Peptide:Unstimulated, cadherin 12, type 2 (N-cadherin 2) (AI740827): 9.5
Ratio Peptide:Unstimulated, complement component C1q receptor (AI761788): 0.51
Ratio Peptide:Unstimulated, leukocyte immunoglobulin-like receptor, subfamily B (with TM and ITIM domains), member 3 (AI815229): 1.10
Ratio Peptide:Unstimulated, small inducible cytokine subfamily B (Cys-X-Cys), member 6 (granulocyte chemotactic protein 2) (AI889554): 0.28
Ratio Peptide:Unstimulated, protein tyrosine phosphatase, receptor type, H (AI924306): 0.24
Ratio Peptide:Unstimulated, tyrosine kinase, non-receptor, 1 (AI936324): 10
Ratio Peptide:Unstimulated, MAP kinase 12 (AI936909): 2.2
Ratio Peptide:Unstimulated, G protein-coupled receptor 17 (AI953187): 0.39
Ratio Peptide:Unstimulated, apoptosis inhibitor 5 (AI972925): 2.4
Ratio Peptide:Unstimulated, leukotriene b4 receptor (chemokine receptor-like 1) (AI982606): 4.13
Ratio Peptide:Unstimulated, IL-17 R (AW029299): 1.5
Ratio Peptide:Unstimulated (C-type lectin-like receptor-2 (H70491)): 2.24
Ratio Peptide:Unstimulated (CCR6 (N57964)): 6.92
Ratio Peptide:Unstimulated (CD31 (PECAM) (R22412)): 1.01
Ratio Peptide:Unstimulated, selectin L (lymphocyte adhesion molecule 1) (H00662): 0.61
Ratio Peptide:Unstimulated, MAP kinase kinase kinase 10 (H01340): 0.50
Ratio Peptide:Unstimulated, protein tyrosine phosphatase, non-receptor type 21 (H03504): 0.25
Ratio Peptide:Unstimulated, disintegrin and metalloproteinase domain 23 (H11006): 2.5
Ratio Peptide:Unstimulated, vascular cell adhesion molecule 1 (H16591): 0.77
Ratio Peptide:Unstimulated, Fc fragment of IgG, low affinity IIIb, receptor for (CD16) (H20822): 0.76
Ratio Peptide:Unstimulated, MAP kinase 7 (H39192, listed as ID 19): 12 and 11.80
Ratio Peptide:Unstimulated, leukocyte immunoglobulin-like receptor, subfamily B (H54023): 0.18
Ratio Peptide:Unstimulated, disintegrin and metalloproteinase domain 9 (H59231): 3.6
Ratio Peptide:Unstimulated, TGF beta receptor III (H62473): 0.41
Ratio Peptide:Unstimulated, regulator of G-protein signaling 13 (H70047): 0.07
Ratio Peptide:Unstimulated, C-type lectin-like receptor-2 (H70491): 2.2
Ratio Peptide:Unstimulated, vasoactive intestinal peptide receptor 1 (H73241): 0.23
Ratio Peptide:Unstimulated, protein tyrosine phosphatase, receptor type, C (H74265): 0.30
Ratio Peptide:Unstimulated, protein tyrosine phosphatase, receptor type, A (H82419): 16.8
Ratio Peptide:Unstimulated, G protein-coupled receptor 75 (H84878): 7.1
Ratio Peptide:Unstimulated, cadherin 1, type 1, E-cadherin epithelial (H97778): 2.4
Ratio Peptide:Unstimulated (IL-11 Rα (AA454657)): 4.85
Ratio Peptide:Unstimulated (IL-17 R (AW029299)): 1.52
Ratio Peptide:Unstimulated (MAP kinase 9 (AA157286)): 0.16
Ratio Peptide:Unstimulated, TLR 7 (N30597): 0.20
Ratio Peptide:Unstimulated, CD36 (N39161): 6.2
Ratio Peptide:Unstimulated, protein tyrosine phosphatase, receptor type, f polypeptide (PTPRF), interacting protein (liprin), α1 (N49751): 1.06
Ratio Peptide:Unstimulated, adenosine A2a R (N57553): 4.0
Ratio Peptide:Unstimulated, CCR6 (N57964): 6.9
Ratio Peptide:Unstimulated, G protein-coupled receptor 55 (N58443): 12
Ratio Peptide:Unstimulated, G protein-coupled receptor 85 (N62306): 4.9
Ratio Peptide:Unstimulated, leukocyte immunoglobulin-like receptor, subfamily A (N63398): 0.38
Ratio Peptide:Unstimulated, receptor tyrosine kinase-like orphan receptor 2 (N94921): 1.6
Ratio Peptide:Unstimulated, CD31 (R22412): 1.0
Ratio Peptide:Unstimulated, growth factor receptor-bound protein 14 (R24266): 6.3
Ratio Peptide:Unstimulated, IK cytokine, down-regulator of HLA II (R39227, listed as ID 19): 1.7 and 1.74
Ratio Peptide:Unstimulated, regulator of G-protein signaling 6 (R39932): 8.9
Ratio Peptide:Unstimulated, cell adhesion molecule (R40400): 3.9
Ratio Peptide:Unstimulated, cadherin 13, H-cadherin (heart) (R41787): 0.56
Ratio Peptide:Unstimulated, diphtheria toxin receptor (heparin-binding epidermal growth factor-like growth factor) (R45640): 0.62
Ratio Peptide:Unstimulated, protein tyrosine phosphatase, receptor type, T (R52794): 3.0
Ratio Peptide:Unstimulated, PDGF R beta polypeptide (R56211): 0.5
Ratio Peptide:Unstimulated, interleukin enhancer binding factor 1 (R56553): 5.3
Ratio Peptide:Unstimulated, Fc fragment of IgG, low affinity IIb, receptor for (CD32) (R68106): 1.21
Ratio Peptide:Unstimulated, MAP kinase kinase kinase 11 (R80779): 0.99
Ratio Peptide:Unstimulated, protocadherin gamma subfamily C, 3 (R89615): 4.5
Ratio Peptide:Unstimulated, G protein-coupled receptor (R91916): 0.09
Ratio Peptide:Unstimulated, TNF receptor-associated factor 2 (T55353): 2.50
Ratio Peptide:Unstimulated, TLR 2 (T57791): 0.48
Ratio Peptide:Unstimulated, caspase 1, apoptosis-related cysteine protease (interleukin 1, beta, convertase) (T95052): 0.33
Ratio Peptide:Unstimulated, BMP R type IA (W15390): 0.3
Ratio Peptide:Unstimulated, caspase 6, apoptosis-related cysteine protease (W45688): 1.3
Ratio Peptide:Unstimulated, MAP kinase kinase kinase 8 (W56266): 9.50
Ratio Peptide:Unstimulated, integrin, beta 8 (W56754): 0.31
Ratio Peptide:Unstimulated, MAP kinase kinase kinase 14 (W61116): 2.10
Ratio Peptide:Unstimulated, integrin, beta 1 (W67174): 7.0
Ratio Peptide:Unstimulated, MAP kinase-activated protein kinase 3 (W68281, listed as ID 19): 1.1 and 1.13
Ratio Peptide:Unstimulated, MAP kinase kinase 5 (W69649): 0.8
Ratio Peptide:Unstimulated, killer cell lectin-like receptor subfamily C, member 3 (W93370): 0.9
Ratio Peptide:Unstimulated, Mouse Mammary Turmor Virus Receptor homolog (W93891): 16
Ratio Peptide:Unstimulated (integrin, alpha 2 (CD49B) (AA463257)): 3.62
Ratio Peptide:Unstimulated (integrin, alpha 3 (antigen CD49C) (AA424695)): 1.88
Ratio Peptide:Unstimulated (integrin, alpha E (AA425451)): 28.48
Ratio Peptide:Unstimulated (integrin, beta 4 (AA485668)): 4.94
